According to US10513547B2, “Peptides and combination of peptides and scaffolds thereof for use in immunotherapy against colorectal carcinoma (CRC) and other cancers” (Immatics Biotechnologies GmbH, priority 2015, dated 2019):
For some assays here: Expression values are those of the mRNA of the gene that encodes the peptide; a gene is named only where it was looked up.

Columns and labels:
[1] = tested on: HLA molecules from shock-frozen tissue samples (CRC, other tumors, normal tissues); assay: Identification and label-free relative LC-MS quantitation of HLA-presented tumor associated peptides (presentation profiles, XPRESIDENT); set-up: species or system human; key to Peptide Presentation (presentation score): very highly over-presented on tumors compared to a panel of normal tissues (+++); highly over-presented on tumors compared to a panel of normal tissues (++); over-presented on tumors compared to a panel of normal tissues (+); details: for Other relevant organs/diseases: additional tumor types: over-presented on more than 5% of measured tumor samples, or presented on more than 5% with ratio of geometric means tumor vs normal larger than 3; for Additional Entities (additional tumor types on which the peptide was found): over-presentation on more than 5% of the measured tumor samples, or presentation on more than 5% of the measured tumor samples with ratio of geometric means tumor vs normal tissues larger than 3; for Peptide Presentation (presentation score): over-presentation on tumors compared to a panel of normal tissues
[2] = Absolute quantitation of TUMAP copies per cell (nanoLC-MS/MS, isolation efficiency, DNA-based cell count); set-up: species or system human; details: NSCLC tumor samples; median number of copies per cell
[3] = tested on: source genes of the peptides in CRC and normal tissues; assay: mRNA expression profiling of source genes encoding the peptides (Affymetrix microarrays); set-up: species or system human; key: very highly over-expressed in tumors compared to a panel of normal tissues (+++); highly over-expressed in tumors compared to a panel of normal tissues (++); over-expressed in tumors compared to a panel of normal tissues (+); details: over-expression in tumors compared to a panel of normal tissues

| Substance | Other relevant organs/diseases [1] | Additional Entities (additional tumor types on which the peptide was found) [1] | Peptide Presentation (presentation score) [1] | Copies per cell (median) [2] | Gene Expression (expression score of source gene) [3] |
| --- | --- | --- | --- | --- | --- |
| 152 (KLLAVIHEL; listed as Homo sapiens) [compound 152] | Lung, Kidney, Pancreas, Ovary, Esophagus | BRCA, Melanoma, Urinary bladder cancer, Gallbladder Cancer, Bile Duct Cancer, AML, NHL | + | +++ (>=1,000 +++) |  |
| 22 (GLIDEVMVL; listed as Homo sapiens) [compound 22] |  | Gallbladder Cancer, Bile Duct Cancer | +++ | ++ (>=100 = ++) |  |
| 1 (ALIKQLFEA; listed as Homo sapiens) [compound 1] | Lung, Brain, Ovary, Esophagus | SCLC, GC, BRCA, Melanoma, Urinary bladder cancer, Uterine Cancer, Gallbladder Cancer, Bile Duct Cancer, AML, NHL | +++ | + (<100 = +) |  |
| 142 (SLVQRVETI; listed as Homo sapiens) [compound 142] | Lung, Kidney, Liver, Melanoma, Ovary, Esophagus | SCLC, PC, BRCA, Urinary bladder cancer, Uterine Cancer, Gallbladder Cancer, Bile Duct Cancer, NHL | +++ | + (<100 = +) |  |
| 183: peptide found in AGK (gene looked up) (TLQEVVTGV; listed as Homo sapiens) [compound 183] | Prostate, Breast | CLL, Melanoma, Urinary bladder cancer, Uterine Cancer, NHL | + |  | ++ |
| 129: peptide found in CNOT1 (gene looked up) (VLIDVLKEL; listed as Homo sapiens) [compound 129] | Kidney, Leukocytes | Melanoma, NHL | +++ |  | + |
| 239: peptide found in KIF15 (gene looked up) (QLIEKNWLL; listed as Homo sapiens) [compound 239] | Lung, Liver, Leukocytes, Ovary, Esophagus |  | +++ |  | +++ |
